Measurements from publication PMC9426605.
These are yes or no findings as the source states them, for the method shown. Some binding calls cover weakened binding; strength is not graded here. Tags and fused reporters may be left off the sequences shown.

Experiments:
Assay in all cases: two-hybrid; bacterial two-hybrid, pKT25 and pUT18 derivatives cotransformed in E. coli BTH101, 30°C, 0.5 mM IPTG; spots on X-Gal plates and β-galactosidase activity against MUG; positive cutoff 4-fold greater than T18/T25
[1] = molecular target: T1, DivIB (S. aureus) (UniProt Q2FZ91)
T1 sequence: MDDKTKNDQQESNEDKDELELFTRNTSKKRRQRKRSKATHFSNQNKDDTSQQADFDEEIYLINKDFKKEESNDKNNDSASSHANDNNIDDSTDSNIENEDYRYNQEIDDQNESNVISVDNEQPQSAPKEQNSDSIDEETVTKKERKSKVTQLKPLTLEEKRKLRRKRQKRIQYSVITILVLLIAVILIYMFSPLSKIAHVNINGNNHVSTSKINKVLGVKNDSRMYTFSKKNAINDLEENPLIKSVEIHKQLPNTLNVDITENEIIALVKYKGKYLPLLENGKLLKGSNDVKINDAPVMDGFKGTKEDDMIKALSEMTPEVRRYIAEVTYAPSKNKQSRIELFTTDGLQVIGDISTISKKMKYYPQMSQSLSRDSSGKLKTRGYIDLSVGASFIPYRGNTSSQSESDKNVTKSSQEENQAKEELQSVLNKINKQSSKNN

[2] = molecular target: T2, EzrA (S. aureus) (UniProt Q2FXK8)
T2 sequence: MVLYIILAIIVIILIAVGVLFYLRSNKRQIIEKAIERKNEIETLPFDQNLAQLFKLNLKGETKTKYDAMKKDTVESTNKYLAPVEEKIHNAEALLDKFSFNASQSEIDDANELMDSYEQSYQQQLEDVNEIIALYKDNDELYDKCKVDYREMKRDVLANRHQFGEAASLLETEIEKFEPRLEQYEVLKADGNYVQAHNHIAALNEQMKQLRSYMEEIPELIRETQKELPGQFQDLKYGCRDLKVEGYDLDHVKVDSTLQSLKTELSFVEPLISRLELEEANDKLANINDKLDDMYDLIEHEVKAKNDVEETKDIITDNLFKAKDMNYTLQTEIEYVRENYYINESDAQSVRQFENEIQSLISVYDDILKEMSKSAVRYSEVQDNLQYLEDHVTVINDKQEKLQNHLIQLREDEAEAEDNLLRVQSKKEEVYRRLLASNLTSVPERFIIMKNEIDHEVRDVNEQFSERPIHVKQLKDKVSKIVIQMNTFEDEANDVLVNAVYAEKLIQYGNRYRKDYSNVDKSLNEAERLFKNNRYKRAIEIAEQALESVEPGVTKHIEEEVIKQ

[3] = molecular target: T3, PBP2 (S. aureus) (UniProt Q2FYI0)
T3 sequence: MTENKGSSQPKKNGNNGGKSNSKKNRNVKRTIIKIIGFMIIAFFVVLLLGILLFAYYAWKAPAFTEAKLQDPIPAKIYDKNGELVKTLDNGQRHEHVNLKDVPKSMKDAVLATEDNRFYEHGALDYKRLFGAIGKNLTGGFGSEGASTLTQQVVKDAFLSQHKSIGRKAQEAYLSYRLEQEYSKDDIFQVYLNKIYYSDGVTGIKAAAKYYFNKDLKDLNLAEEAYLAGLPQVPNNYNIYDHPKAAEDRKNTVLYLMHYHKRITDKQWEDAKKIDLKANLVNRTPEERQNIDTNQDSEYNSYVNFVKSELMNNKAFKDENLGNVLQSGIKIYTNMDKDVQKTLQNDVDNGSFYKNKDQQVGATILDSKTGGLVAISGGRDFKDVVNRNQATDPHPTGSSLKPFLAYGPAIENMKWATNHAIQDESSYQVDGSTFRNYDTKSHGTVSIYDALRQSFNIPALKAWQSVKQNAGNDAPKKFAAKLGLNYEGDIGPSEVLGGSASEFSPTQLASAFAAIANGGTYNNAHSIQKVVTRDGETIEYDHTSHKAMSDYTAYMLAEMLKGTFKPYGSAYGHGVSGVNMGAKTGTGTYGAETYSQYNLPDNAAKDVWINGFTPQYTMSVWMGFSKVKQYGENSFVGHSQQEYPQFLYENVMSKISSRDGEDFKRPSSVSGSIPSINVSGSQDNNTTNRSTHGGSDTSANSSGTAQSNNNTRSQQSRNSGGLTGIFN

Measured: binding

B1: Penicillin-binding protein 1 (PBP1) of Staphylococcus aureus, T25 fusion (enzyme, UniProt Q2FZ94 1-744)
chain: MAKQKIKIKKNKIGAVLLVGLFGLLFFILVLRISYIMITGHSNGQDLVMKANEKYLVKNAQQPERGKIYDRNGKVLAEDVERYKLVAVIDKKASANSKKPRHVVDKKETAKKLSTVINMKPEEIEKRLSQKKAFQIEFGRKGTNLTYQDKLKIEKMNLPGISLLPETERFYPNGNFASHLIGRAQKNPDTGELKGALGVEKIFDSYLSGSKGSLRYIHDIWGYIAPNTKKEKQPKRGDDVHLTIDSNIQVFVEEALDGMVERYQPKDLFAVVMDAKTGEILAYSQRPTFNPETGKDFGKKWANDLYQNTYEPGSTFKSYGLAAAIQEGAFDPDKKYKSGHRDIMGSRISDWNRVGWGEIPMSLGFTYSSNTLMMHLQDLVGADKMKSWYERFGFGKSTKGMFDGEAPGQIGWSNELQQKTSSFGQSTTVTPVQMLQAQSAFFNDGNMLKPWFVNSVENPVSKRQFYKGQKQIAGKPITKDTAEKVEKQLDLVVNSKKSHAANYRIDGYEVEGKTGTAQVAAPNGGGYVKGPNPYFVSFMGDAPKKNPKVIVYAGMSLAQKNDQEAYELGVSKAFKPIMENTLKYLNVGKSKDDTSNAEYSKVPDVEGQDKQKAIDNVSAKSLEPVTIGSGTQIKAQSIKAGNKVLPHSKVLLLTDGDLTMPDMSGWTKEDVIAFENLTNIKVNLKGSGFVSHQSISKGQKLTEKDKIDVEFSSENVDSNSTNNSDSNSDDKKKSDSKTDKDKSD
binds: all assays above

B2: T25-PBP1_(ΔPASTA): S. aureus PBP1 without the PASTA domains (M1-S595) (domain or fragment, UniProt Q2FZ94 1-595)
chain: MAKQKIKIKKNKIGAVLLVGLFGLLFFILVLRISYIMITGHSNGQDLVMKANEKYLVKNAQQPERGKIYDRNGKVLAEDVERYKLVAVIDKKASANSKKPRHVVDKKETAKKLSTVINMKPEEIEKRLSQKKAFQIEFGRKGTNLTYQDKLKIEKMNLPGISLLPETERFYPNGNFASHLIGRAQKNPDTGELKGALGVEKIFDSYLSGSKGSLRYIHDIWGYIAPNTKKEKQPKRGDDVHLTIDSNIQVFVEEALDGMVERYQPKDLFAVVMDAKTGEILAYSQRPTFNPETGKDFGKKWANDLYQNTYEPGSTFKSYGLAAAIQEGAFDPDKKYKSGHRDIMGSRISDWNRVGWGEIPMSLGFTYSSNTLMMHLQDLVGADKMKSWYERFGFGKSTKGMFDGEAPGQIGWSNELQQKTSSFGQSTTVTPVQMLQAQSAFFNDGNMLKPWFVNSVENPVSKRQFYKGQKQIAGKPITKDTAEKVEKQLDLVVNSKKSHAANYRIDGYEVEGKTGTAQVAAPNGGGYVKGPNPYFVSFMGDAPKKNPKVIVYAGMSLAQKNDQEAYELGVSKAFKPIMENTLKYLNVGKSKDDTS
binds: all assays above
